The target in test [1] is HA-tagged PEN2-2A (stably expressed in PEN2-/- MEFs) (UniProt Q9NZ42). As to the kind of experiment: co-IP; PEN2-/- MEFs infected with lentivirus expressing HA-tagged PEN2, PEN2-2A or PEN2-20A; cells treated with 200 μM metformin for 12 h; IP with anti-HA; immunoblot for PS1, PS2, NCSTN, APH1A/B/C.
The target in test [2] is HA-tagged PEN2 (stably expressed in MEFs) (UniProt Q9NZ42). Described as above.

Chains of the proteins cited; added tags and fusions are not shown. Lines headed by an entry give the natural chain unless they say otherwise; changes in a name come on top. A line that says so, or that is headed by a name, gives the form on record, which may keep a tag or linker.
UniProt Q9NZ42: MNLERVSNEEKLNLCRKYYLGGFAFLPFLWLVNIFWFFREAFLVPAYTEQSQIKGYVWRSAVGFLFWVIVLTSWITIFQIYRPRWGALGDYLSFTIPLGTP
HA-tagged PEN2-2A (stably expressed in PEN2-/- MEFs) (Q9NZ42, form named): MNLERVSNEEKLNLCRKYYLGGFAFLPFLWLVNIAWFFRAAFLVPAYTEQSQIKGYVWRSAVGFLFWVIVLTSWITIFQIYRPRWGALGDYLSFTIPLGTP

No constants are given. Whether binding was seen depends on the method and setting. In cells and extracts the contact can be indirect. Some entries that bind do so weakly or less than the wild type.

In the case of “PS2 (presenilin 2; endogenous, MEFs) (from UniProt Q61144 1-448)”, the binding entry in test [1] and in test [2] was “binds” each time.
